The target in the test is Myc-tagged E2F4 (human) (UniProt Q16254). Briefly: co-IP.

Sequences of proteins named here, by UniProt entry; tags and fusion partners are left off.
UniProt Q16254: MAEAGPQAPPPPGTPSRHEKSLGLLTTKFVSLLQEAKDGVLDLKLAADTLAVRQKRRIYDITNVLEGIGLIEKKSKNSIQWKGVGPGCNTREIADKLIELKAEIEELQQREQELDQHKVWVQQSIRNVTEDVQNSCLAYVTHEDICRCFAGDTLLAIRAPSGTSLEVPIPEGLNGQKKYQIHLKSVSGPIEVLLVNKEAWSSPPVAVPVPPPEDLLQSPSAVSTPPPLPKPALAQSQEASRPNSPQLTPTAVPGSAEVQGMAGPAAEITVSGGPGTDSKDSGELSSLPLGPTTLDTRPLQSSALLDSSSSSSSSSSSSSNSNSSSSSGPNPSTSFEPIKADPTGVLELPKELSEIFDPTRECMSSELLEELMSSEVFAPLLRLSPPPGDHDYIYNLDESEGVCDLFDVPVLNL
UniProt Q04206: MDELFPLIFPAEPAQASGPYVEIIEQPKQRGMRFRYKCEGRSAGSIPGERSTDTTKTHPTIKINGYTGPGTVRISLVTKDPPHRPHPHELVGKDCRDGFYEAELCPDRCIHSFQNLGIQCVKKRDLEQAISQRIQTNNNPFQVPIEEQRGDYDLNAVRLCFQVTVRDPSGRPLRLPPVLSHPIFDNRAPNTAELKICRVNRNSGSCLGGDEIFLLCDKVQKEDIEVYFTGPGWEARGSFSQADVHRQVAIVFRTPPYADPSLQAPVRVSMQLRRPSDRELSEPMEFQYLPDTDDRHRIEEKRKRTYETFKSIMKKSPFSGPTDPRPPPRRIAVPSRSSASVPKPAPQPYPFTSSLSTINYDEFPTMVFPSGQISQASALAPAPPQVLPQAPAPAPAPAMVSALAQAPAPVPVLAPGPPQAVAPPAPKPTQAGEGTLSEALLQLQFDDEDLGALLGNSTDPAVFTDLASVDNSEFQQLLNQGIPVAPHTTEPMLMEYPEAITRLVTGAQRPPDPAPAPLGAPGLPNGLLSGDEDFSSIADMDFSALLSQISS

This passage reports binding results from PMC10776911.

No constants are given. Whether binding was seen depends on the method and setting. Binding seen in cells or lysates may run through a third protein. Some binding calls cover weakened binding; strength is not graded here.

With “Non-tagged human RelA (from UniProt Q04206 1-551)”, the binding result is recorded as “binds”.
